Some of the results follow. The main result of the screen is listed elsewhere. These columns were measured beside it and carry no call. Compounds called inactive in the main read-out are mostly missing here. The note in brackets gives the kind of curve behind each potency; many fits are weak.
Assay: qHTS Assay for Lipid Storage Modulators in Drosophila S3 Cells;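 as to cell number change: cells counted by Cell Tracker Red CMTPX staining in the red channel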
Settings: BODIPY lipid droplet fluorescence, 18-24 h; for cell number change: measured here: cell count max response, cells fed with added oleic acid
Summary of the method: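 Laser-scanning cytometry quantifies lipid droplet accumulation (500–530 nm total intensity; droplet/cell object ratio) in oleic acid-fed (400 uM added) Drosophila S3 cells treated with a concentration series. 20 uM Triacsin C defined 100% inhibition.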

[1] = measured here: lipid fluorescence (Fed channel) AC50, cells fed with added oleic acid
[2] = measured here: cell number channel AC50, cells fed with added oleic acid

Compound | cell number change | AC50 [1] | AC50 [2]
O=C1CC(=O)Nc2cc(S(=O)(=O)N3CCOc4ccccc43)ccc2N1 | -1.15% | 0.0291 µM [rising, full curve, poor fit] | –
COCCn1nnnc1C(c1ccc(C(F)(F)F)cc1)N1CCOCC1 (stereo not drawn) | 37.2% | – | 18.4 µM [rising, single point]
COc1ccc(OC)c(S(=O)(=O)N2CCN(C(=O)c3cc(C4CC4)nn3-c3ccccc3)CC2)c1 | -20.2% | 29.1 µM [falling, single point] | –
CCOC(=O)C1=C(C)Nc2nc(C)nn2C1c1cc(OC)ccc1OC (stereo not drawn) | 20.3% | 14.6 µM [rising, partial curve] | –
COc1cc(-c2nnc(SCC(=O)NC3CCS(=O)(=O)C3)o2)cc(OC)c1OC (stereo not drawn) | 33.7% | – | –
COc1cc(C(=O)NCC(c2cccs2)N2CCOCC2)c([N+](=O)[O-])cc1OC (stereo not drawn) | – | – | 6.51 µM [rising, single point]
C=CCNC(=S)N/N=C/c1ccc(C(C)(C)C)cc1 | -39.9% | 29.1 µM [falling, single point] | 29.1 µM [falling, single point]
COc1ccc(NC(=O)CN(C)C(=O)c2cccc(S(=O)(=O)Nc3ccccc3Cl)c2)cc1 | 36.8% | 2.31 µM [rising, partial curve] | 11.6 µM [rising, partial curve, poor fit]
COC(=O)C(C)N(c1ccc(C)cc1)S(=O)(=O)c1c(C)[nH]c(=O)[nH]c1=O (stereo not drawn) | – | 20.6 µM [falling, partial curve] | –
COc1ccc(S(=O)(=O)NC(N)=NCCc2ccccc2OC)cc1 | 25.4% | 20.6 µM [rising, single point] | –
CCc1nnc(NC(=O)CSc2nc3[nH]ncc3c(=O)[nH]2)s1 | -44.6% | 1.64 µM [falling, partial curve] | 2.31 µM [falling, full curve, poor fit]
Cc1ccc(N)c2c1OCCC2=O | -6.97% | 20.6 µM [rising, single point] | –
Oc1c(N=NC(=S)Nc2ccccc2F)c2ccccc2n1Cc1ccccc1F | -54.8% | 18.4 µM [falling, partial curve] | 18.4 µM [falling, partial curve]
O=C(O)CCC(=O)Nc1ccc(Cc2ccc(NC(=O)CCC(=O)O)c(O)c2)cc1O | 32.9% | 29.1 µM [falling, single point] | 23.1 µM [rising, single point]
CC(=O)Oc1ccc(N(C(C)=O)S(=O)(=O)c2cc([N+](=O)[O-])ccc2C)cc1 | -30.6% | 1.46 µM [falling, single point] | 29.1 µM [falling, single point]

An excerpt of these results, tab-delimited:
Compound	cell number change	AC50 [1]	AC50 [2]
Oc1c(N=NC(=S)Nc2ccccc2F)c2ccccc2n1Cc1ccccc1F	-54.8%	18.4 µM [falling, partial curve]	18.4 µM [falling, partial curve]
O=C(O)CCC(=O)Nc1ccc(Cc2ccc(NC(=O)CCC(=O)O)c(O)c2)cc1O	32.9%	29.1 µM [falling, single point]	23.1 µM [rising, single point]
